From US20070128586A1, “Therapeutic, prophylactic and diagnostic agents” (priority 2003, published 2007)
For at least one compound, name, drawing or mass did not settle the structure.

Tested on: TLR-2
Assay: TLR-2 expression on CD14+ve PBMCs by flow cytometry, chronic Hepatitis B patients
Format: in vivo, human
Conditions: five lamivudine-treated CHB patients in whom HBV DNA became undetectable

Nc1ccn([C@@H]2CS[C@H](CO)O2)c(=O)n1 [lamivudine]
TLR-2 expression on CD14+ve PBMCs after treatment: normalised
